Results reported in the supplement of paper PMC6411743.
± gives the standard deviation of the averaged measurements. The list shows a part of the results, in another mix than the full data.

Chains of the proteins cited; added tags and fusions are not shown. Lines headed by an entry give the natural chain unless they say otherwise; changes in a name come on top.
UniProt Q96T76: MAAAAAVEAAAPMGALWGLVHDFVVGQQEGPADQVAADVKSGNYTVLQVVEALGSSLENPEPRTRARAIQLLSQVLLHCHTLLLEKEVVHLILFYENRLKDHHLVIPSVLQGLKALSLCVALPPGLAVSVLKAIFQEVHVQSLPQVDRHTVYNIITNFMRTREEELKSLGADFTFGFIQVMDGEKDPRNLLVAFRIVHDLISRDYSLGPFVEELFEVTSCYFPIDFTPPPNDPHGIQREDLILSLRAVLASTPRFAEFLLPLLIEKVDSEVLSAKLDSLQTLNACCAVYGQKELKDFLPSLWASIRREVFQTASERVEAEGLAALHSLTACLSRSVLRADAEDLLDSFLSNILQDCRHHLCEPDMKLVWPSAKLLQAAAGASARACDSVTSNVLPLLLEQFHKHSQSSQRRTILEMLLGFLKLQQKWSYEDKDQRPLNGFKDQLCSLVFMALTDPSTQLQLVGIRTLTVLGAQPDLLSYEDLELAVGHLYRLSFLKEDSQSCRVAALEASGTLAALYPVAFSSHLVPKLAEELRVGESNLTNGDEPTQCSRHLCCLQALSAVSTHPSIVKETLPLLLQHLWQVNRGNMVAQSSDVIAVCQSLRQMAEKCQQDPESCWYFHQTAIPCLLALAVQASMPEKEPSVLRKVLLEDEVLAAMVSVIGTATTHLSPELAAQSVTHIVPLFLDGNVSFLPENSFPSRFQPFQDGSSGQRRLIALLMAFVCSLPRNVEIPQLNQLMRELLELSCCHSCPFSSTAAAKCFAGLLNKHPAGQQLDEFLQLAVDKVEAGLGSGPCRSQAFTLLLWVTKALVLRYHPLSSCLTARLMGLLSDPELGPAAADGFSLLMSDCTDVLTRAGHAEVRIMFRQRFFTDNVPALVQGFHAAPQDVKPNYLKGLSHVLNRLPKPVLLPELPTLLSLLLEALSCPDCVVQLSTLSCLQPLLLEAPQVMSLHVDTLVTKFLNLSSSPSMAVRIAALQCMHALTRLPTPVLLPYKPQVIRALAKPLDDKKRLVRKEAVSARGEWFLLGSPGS
UniProt Q9BRT2: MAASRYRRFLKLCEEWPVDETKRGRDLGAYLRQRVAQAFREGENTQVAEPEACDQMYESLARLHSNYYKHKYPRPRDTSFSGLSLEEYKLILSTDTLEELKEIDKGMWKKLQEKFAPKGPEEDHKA
UniProt Q99571: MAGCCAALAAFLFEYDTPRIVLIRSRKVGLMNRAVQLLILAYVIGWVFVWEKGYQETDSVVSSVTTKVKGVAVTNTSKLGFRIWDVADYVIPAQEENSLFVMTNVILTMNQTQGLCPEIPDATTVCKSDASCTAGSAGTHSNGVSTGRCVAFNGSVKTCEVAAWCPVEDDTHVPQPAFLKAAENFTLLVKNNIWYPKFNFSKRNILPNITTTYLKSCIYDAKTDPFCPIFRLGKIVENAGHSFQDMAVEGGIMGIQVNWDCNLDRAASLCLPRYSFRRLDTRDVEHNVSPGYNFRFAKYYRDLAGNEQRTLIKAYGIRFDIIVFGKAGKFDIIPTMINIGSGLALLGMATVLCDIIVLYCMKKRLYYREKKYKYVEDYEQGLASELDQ
UniProt Q9BV81: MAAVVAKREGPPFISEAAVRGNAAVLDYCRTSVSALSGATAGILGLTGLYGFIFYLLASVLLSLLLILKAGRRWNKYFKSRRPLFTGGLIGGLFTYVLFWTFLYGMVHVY
UniProt Q9BW85: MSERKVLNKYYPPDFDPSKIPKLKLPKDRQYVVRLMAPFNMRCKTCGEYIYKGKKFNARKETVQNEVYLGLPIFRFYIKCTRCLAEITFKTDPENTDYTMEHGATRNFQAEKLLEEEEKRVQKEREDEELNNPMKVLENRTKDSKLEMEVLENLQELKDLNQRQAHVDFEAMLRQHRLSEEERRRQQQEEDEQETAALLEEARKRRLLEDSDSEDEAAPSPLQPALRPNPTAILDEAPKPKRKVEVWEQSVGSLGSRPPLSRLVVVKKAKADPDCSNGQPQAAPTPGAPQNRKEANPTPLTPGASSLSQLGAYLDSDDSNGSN
UniProt Q99623, whole entry: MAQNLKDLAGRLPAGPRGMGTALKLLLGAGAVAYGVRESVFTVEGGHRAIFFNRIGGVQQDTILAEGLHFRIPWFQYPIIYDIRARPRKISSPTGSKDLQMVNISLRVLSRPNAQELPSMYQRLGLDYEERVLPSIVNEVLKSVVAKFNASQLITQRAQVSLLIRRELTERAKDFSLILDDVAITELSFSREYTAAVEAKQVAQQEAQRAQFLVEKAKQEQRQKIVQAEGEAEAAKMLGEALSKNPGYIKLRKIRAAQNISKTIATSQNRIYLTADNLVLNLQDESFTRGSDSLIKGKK
UniProt Q9BQ15: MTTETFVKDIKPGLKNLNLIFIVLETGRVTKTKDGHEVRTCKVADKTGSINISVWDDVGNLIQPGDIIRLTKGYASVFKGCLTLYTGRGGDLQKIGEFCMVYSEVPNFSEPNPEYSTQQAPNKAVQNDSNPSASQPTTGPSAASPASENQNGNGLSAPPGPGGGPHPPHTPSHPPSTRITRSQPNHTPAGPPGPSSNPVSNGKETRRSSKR
UniProt Q9BRT6: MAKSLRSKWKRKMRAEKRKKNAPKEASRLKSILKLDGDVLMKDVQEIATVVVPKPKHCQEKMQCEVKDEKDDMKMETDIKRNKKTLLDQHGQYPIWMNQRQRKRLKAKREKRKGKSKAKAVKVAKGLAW
UniProt Q96RG2: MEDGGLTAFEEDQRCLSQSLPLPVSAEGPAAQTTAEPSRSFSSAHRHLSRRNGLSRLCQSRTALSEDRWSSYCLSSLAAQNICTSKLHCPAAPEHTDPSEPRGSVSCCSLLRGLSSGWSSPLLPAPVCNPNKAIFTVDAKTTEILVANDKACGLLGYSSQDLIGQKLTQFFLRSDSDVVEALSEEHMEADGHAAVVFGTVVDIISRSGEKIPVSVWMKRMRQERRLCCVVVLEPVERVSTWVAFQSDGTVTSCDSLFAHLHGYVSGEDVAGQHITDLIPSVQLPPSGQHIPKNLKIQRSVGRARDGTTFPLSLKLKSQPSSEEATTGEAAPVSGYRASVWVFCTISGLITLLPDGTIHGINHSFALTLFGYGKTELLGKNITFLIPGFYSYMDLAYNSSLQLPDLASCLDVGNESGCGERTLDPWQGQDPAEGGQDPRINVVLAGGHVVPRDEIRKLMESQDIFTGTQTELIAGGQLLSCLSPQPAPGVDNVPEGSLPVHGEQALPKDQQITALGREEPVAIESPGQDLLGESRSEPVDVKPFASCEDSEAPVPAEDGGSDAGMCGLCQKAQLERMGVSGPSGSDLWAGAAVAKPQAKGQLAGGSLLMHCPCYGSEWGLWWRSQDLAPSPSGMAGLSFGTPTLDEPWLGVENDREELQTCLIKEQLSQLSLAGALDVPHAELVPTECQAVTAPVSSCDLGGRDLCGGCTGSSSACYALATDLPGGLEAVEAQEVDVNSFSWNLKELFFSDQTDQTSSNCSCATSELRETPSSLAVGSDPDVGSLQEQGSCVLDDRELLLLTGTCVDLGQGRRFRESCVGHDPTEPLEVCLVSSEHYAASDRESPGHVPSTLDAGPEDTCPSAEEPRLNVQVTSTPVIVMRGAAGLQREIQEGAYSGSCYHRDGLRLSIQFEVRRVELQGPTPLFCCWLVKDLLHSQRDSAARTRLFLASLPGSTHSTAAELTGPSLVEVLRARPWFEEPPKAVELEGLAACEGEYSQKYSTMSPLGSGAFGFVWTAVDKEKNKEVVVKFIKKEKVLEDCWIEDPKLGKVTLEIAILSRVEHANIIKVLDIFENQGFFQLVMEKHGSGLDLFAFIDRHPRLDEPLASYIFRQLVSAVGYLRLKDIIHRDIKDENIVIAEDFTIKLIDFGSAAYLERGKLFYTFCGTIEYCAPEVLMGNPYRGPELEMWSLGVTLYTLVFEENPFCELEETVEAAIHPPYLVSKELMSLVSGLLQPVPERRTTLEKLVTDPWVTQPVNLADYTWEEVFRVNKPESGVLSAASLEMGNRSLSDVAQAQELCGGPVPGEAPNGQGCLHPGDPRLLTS
UniProt Q9BQ39: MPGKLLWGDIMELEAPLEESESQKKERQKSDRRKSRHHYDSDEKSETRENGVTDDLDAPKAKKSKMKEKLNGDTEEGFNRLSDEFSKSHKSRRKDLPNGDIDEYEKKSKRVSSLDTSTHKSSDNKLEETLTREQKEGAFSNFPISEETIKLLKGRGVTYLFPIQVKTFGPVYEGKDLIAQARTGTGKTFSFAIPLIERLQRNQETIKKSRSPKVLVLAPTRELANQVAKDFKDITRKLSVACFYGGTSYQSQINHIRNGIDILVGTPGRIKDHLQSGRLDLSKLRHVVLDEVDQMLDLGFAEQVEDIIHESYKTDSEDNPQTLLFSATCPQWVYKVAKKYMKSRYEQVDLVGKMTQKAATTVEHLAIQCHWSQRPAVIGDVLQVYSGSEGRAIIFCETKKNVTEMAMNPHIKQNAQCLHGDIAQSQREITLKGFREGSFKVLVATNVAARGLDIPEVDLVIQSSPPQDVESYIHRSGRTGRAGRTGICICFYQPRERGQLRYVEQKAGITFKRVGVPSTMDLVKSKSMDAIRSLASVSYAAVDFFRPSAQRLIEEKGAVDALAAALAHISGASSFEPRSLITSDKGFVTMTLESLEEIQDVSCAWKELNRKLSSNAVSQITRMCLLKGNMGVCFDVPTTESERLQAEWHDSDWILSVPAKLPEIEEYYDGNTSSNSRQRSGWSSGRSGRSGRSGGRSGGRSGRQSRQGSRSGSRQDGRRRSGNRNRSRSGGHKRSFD
UniProt Q9BXB4: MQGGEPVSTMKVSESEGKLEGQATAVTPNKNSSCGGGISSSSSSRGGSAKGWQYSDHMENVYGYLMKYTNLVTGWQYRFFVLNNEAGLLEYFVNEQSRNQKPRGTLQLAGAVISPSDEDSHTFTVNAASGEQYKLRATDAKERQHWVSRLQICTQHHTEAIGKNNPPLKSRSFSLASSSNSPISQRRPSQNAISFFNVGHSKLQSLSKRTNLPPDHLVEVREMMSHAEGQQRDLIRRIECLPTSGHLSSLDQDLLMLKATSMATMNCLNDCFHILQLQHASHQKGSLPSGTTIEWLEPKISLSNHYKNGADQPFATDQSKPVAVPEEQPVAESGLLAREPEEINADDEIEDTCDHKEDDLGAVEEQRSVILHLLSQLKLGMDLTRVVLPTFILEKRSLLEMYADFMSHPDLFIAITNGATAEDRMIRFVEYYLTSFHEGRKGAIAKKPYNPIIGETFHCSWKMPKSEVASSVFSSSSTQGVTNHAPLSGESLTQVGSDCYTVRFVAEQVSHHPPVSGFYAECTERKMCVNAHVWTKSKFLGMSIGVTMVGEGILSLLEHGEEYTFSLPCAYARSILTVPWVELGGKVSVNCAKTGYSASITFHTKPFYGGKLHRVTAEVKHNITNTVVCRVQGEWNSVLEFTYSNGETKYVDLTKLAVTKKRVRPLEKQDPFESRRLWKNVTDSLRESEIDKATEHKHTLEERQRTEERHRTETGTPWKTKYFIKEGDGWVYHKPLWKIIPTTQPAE
UniProt Q99471, whole entry: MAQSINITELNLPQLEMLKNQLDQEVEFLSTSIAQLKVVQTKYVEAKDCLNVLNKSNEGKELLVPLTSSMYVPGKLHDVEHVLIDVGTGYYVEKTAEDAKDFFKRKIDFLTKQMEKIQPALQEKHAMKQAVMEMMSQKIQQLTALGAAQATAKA
UniProt Q9BVA0, whole entry: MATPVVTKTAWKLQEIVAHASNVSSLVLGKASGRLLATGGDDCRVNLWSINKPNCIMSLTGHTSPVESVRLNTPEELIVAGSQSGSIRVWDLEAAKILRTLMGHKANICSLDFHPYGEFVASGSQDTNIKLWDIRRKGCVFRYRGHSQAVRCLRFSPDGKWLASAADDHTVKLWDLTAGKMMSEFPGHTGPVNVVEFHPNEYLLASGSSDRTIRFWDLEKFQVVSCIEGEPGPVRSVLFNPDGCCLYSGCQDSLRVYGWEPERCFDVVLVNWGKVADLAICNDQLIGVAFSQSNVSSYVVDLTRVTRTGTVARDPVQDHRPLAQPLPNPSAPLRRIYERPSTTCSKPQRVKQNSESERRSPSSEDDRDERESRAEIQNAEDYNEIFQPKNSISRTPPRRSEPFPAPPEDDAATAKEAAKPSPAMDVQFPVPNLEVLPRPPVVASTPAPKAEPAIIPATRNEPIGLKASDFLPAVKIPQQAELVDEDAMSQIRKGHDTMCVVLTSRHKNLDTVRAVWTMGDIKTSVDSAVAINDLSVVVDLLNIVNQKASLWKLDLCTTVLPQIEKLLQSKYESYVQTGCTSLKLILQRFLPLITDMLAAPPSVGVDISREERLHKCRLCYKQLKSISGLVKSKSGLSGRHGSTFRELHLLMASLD
UniProt Q9BRP1: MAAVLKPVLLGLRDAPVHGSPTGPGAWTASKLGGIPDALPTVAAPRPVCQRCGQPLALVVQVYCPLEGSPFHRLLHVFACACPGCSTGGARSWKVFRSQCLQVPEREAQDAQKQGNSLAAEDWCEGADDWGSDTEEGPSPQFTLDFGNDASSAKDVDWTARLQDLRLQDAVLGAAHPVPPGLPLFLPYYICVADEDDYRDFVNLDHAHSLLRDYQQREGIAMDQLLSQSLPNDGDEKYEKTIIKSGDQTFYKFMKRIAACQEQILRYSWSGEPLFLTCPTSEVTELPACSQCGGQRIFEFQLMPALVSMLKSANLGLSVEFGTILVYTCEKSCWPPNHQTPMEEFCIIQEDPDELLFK

Compound: Nc1ncnc2c1ncn2[C@@H]1O[C@H](COP(=O)(O)OP(=O)(O)NP(=O)(O)O)[C@@H](O)[C@H]1O [adenylyl imidodiphosphate]
Assay: NP40-soluble protein abundance relative to vehicle (solubility fold change) (ratio); higher = more soluble protein in presence of AMP-PNP
How it was run: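 Data come from three independent experiments in which Dounce-homogenised Jurkat crude lysate was treated at eight concentrations from 0.1 to 10 mM. Treatment ran 10 min at room temperature and then 3 min at 37 °C, after which 0.8% NP40 and benzonase were added for 60 min at 4 °C before ultracentrifugation. The supernatant underwent TMT labelling and LC-MS/MS, and vsn-normalised intensities were expressed as fold change against the detergent-processed vehicle in each replicate.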

Row | Target | NP40-soluble protein abundance (concentration: 1mM) | NP40-soluble protein abundance (concentration: 2mM) | NP40-soluble protein abundance (concentration: 4mM) | NP40-soluble protein abundance (concentration: 6mM) | NP40-soluble protein abundance (concentration: 8mM) | NP40-soluble protein abundance (concentration: 10mM)
1 | UniProt Q96T76 and related entries | 0.964 ± 0.013 | 0.929 ± 0.082 | 0.972 ± 0.032 | 0.987 ± 0.036 | 1.002 ± 0.0053 | 0.9354 ± 0.0075
2 | NEU1 (UniProt Q99519) | 1.02 ± 0.011 | 1 ± 0.01 | 0.991 ± 0.016 | 1 ± 0.023 | 1 ± 0.029 | 0.995 ± 0.016
3 | C7orf50 (UniProt Q9BRJ6) | 1.05 ± 0.029 | 1.03 ± 0.02 | 1.067 ± 0.0013 | 1.01 ± 0.036 | 1.058 ± 0.0046 | 1.04 ± 0.011
4 | UniProt Q9BRT2 and related entries | 1.03 ± 0.022 | 1.13 ± 0.11 | 1.03 ± 0.016 | 1.0141 ± 0.00091 | 1.025 ± 0.0039 | 1.011 ± 0.0053
5 | UniProt Q99571 and related entries | 0.986 ± 0.019 | 0.959 ± 0.019 | 0.971 ± 0.019 | 1.014 ± 0.0026 | 1.012 ± 0.0075 | 1.01 ± 0.039
6 | UniProt Q9BV81 | 0.971 ± 0.012 | 0.972 ± 0.018 | 0.963 ± 0.035 | 0.968 ± 0.019 | 0.969 ± 0.024 | 0.942 ± 0.013
7 | UniProt Q96SD1 and related entries | 1.01 ± 0.027 | 1.06 ± 0.1 | 0.997 ± 0.065 | 0.994 ± 0.046 | 0.952 ± 0.026 | 0.97 ± 0.032
8 | CABLES2 (UniProt Q9BTV7) | 1 ± 0.016 | 1 ± 0.014 | 0.98908 ± 0.00067 | 0.996 ± 0.029 | 1 ± 0.011 | 0.985 ± 0.017
9 | UniProt Q99871 and related entries | 0.95 ± 0.026 | 0.9473 ± 0.0069 | 0.9167 ± 0.005 | 0.903 ± 0.03 | 0.875 ± 0.046 | 0.876 ± 0.058
10 | UniProt Q96T21 and related entries | 0.97 ± 0.01 | 1.01 ± 0.037 | 1 ± 0.021 | 1.01 ± 0.018 | 0.9916 ± 0.003 | 1.03 ± 0.038
11 | UniProt Q9BTE3 and related entries | 0.977 ± 0.021 | 0.94 ± 0.052 | 0.9719 ± 0.0037 | 0.944 ± 0.024 | 0.958 ± 0.023 | 0.941 ± 0.018
12 | UniProt Q9BW85 | 1.03 ± 0.049 | 1.11 ± 0.097 | 1.03 ± 0.041 | 1.06 ± 0.028 | 1.03 ± 0.042 | 1.09 ± 0.056
13 | PARD6B (UniProt Q9BYG5) | 1.013 ± 0.0096 | 0.998 ± 0.022 | 0.994 ± 0.024 | 0.986 ± 0.011 | 0.997 ± 0.029 | 0.984 ± 0.017
14 | UniProt Q9BX40 and related entries | 1.06 ± 0.022 | 1.09 ± 0.03 | 1.1 ± 0.038 | 1.09 ± 0.012 | 1.11 ± 0.015 | 1.18 ± 0.016
15 | UniProt Q99623 | 0.937 ± 0.043 | 0.869 ± 0.046 | 0.905 ± 0.045 | 1.01 ± 0.012 | 1 ± 0.024 | 0.98 ± 0.093
16 | NABP2 (UniProt Q9BQ15) | 1.02 ± 0.093 | 1.07 ± 0.071 | 1.04 ± 0.036 | 1.06 ± 0.064 | 1.08 ± 0.066 | 1.12 ± 0.092
17 | LLPH (UniProt Q9BRT6) | 1.06 ± 0.025 | 1.087 ± 0.0039 | 1.11 ± 0.056 | 1.18 ± 0.045 | 1.13 ± 0.059 | 1.24 ± 0.026
18 | UniProt Q9BTL3 | 0.9722 ± 0.0028 | 0.997 ± 0.0059 | 0.921 ± 0.052 | 0.924 ± 0.07 | 0.93 ± 0.061 | 0.923 ± 0.059
19 | DCUN1D5 (UniProt Q9BTE7) | 0.983 ± 0.041 | 0.966 ± 0.04 | 0.988 ± 0.015 | 0.986 ± 0.036 | 1.01 ± 0.033 | 0.97 ± 0.022
20 | UniProt Q96RG2 and related entries | 0.9919 ± 0.0087 | 0.997 ± 0.048 | 1.02 ± 0.011 | 0.982 ± 0.021 | 1 ± 0.026 | 0.996 ± 0.024
21 | UniProt Q9BQ39 and related entries | 1.22 ± 0.068 | 1.27 ± 0.062 | 1.35 ± 0.023 | 1.43 ± 0.04 | 1.52 ± 0.097 | 1.5 ± 0.14
22 | UniProt Q9BZ23 and related entries | 0.978 ± 0.02 | 0.971 ± 0.02 | 0.9738 ± 0.0057 | 0.9781 ± 0.0054 | 0.9885 ± 0.007 | 0.978 ± 0.022
23 | OSBPL11 (UniProt Q9BXB4) | 1.02 ± 0.029 | 1.04 ± 0.013 | 1.04 ± 0.016 | 0.959 ± 0.039 | 0.951 ± 0.029 | 0.981 ± 0.045
24 | PFDN5 (UniProt Q99471) | 0.962 ± 0.011 | 1.04 ± 0.12 | 0.947 ± 0.037 | 0.929 ± 0.045 | 0.886 ± 0.062 | 0.918 ± 0.032
25 | KATNB1 (UniProt Q9BVA0) | 1.04 ± 0.031 | 1.03 ± 0.035 | 1.052 ± 0.01 | 1.003 ± 0.0066 | 1.01 ± 0.035 | 1 ± 0.02
26 | RIOK1 (UniProt Q9BRS2) | 0.921 ± 0.032 | 0.975 ± 0.029 | 0.959 ± 0.04 | 0.934 ± 0.062 | 0.9 ± 0.03 | 0.999 ± 0.046
27 | FUT8 (UniProt Q9BYC5) | 0.973 ± 0.013 | 0.992 ± 0.027 | 0.964 ± 0.013 | 0.971 ± 0.063 | 0.979 ± 0.031 | 0.983 ± 0.043
28 | DIDO1 (UniProt Q9BTC0) | 1.1 ± 0.035 | 1.18 ± 0.093 | 1.23 ± 0.043 | 1.28 ± 0.12 | 1.27 ± 0.12 | 1.36 ± 0.12
29 | CARD11 (UniProt Q9BXL7) | 0.948 ± 0.034 | 0.976 ± 0.019 | 0.96 ± 0.019 | 0.946 ± 0.055 | 0.914 ± 0.036 | 0.934 ± 0.04
30 | PDCD2L (UniProt Q9BRP1) | 1.01 ± 0.035 | 1.03 ± 0.016 | 1.03 ± 0.035 | 1.02 ± 0.021 | 1.033 ± 0.0075 | 1.03 ± 0.024

Some entries already given with just NP40-soluble protein abundance (concentration: 10mM) and NP40-soluble protein abundance (concentration: 6mM):
Row,Target,NP40-soluble protein abundance (concentration: 10mM),NP40-soluble protein abundance (concentration: 6mM)
23,OSBPL11 (UniProt Q9BXB4),0.981 ± 0.045,0.959 ± 0.039
30,PDCD2L (UniProt Q9BRP1),1.03 ± 0.024,1.02 ± 0.021
